Results: the supplement of paper PMC10338343
± gives the standard deviation. Only a part is listed here, and it is no random draw. The uncertainty is large for many entries.

Legend:
[1] = system: MILI (PIWIL2) piRISC loaded with piRNA #1 (26 nt); assay: pre-steady-state target cleavage rate (min^-1); higher = faster piRNA-guided slicing of the target; details: guide: piRNA #1 5'p-UGAGGUAGUAGGUUGUAUAGUAUCCA; auxiliary factor: 500 nM mouse GTSF1
Outline: (§1)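 Cleave-'n-Seq: 1 nM active affinity-purified piRISC with one synthetic guide and 0.1 nM transcribed, DNA-blocked target RNA library were mixed, with or without 500 nM GTSF1 partner protein, in HEPES–potassium acetate buffer at 33 °C for 0–8 or 0–960 min. Uncleaved targets were sequenced and normalised to depth and to weakly complementary targets, three trials were pooled, and k3 was capped at 0.0001 min^-1. The pre-steady-state cleavage rate was fitted […].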

[2] = system: MIWI (PIWIL1) piRISC loaded with piRNA #1 (30 nt); assay: as above; details: guide: piRNA #1 5'p-UGAGGUAGUAGGUUGUAUAGUAUCCAGAGG; auxiliary factor: 500 nM mouse GTSF1
Outline: as §1

[3] = system: EfPiwi piRISC loaded with piRNA #1 (26 nt); assay: pre-steady-state target cleavage rate (min^-1); guide: piRNA #1 5'p-UGAGGUAGUAGGUUGUAUAGUAUCCA; MIWI and MILI are mouse PIWI proteins and EfPiwi is from a freshwater sponge; tags in brackets are library labels; higher = faster piRNA-guided slicing of the target; details: auxiliary factor: 500 nM Ephydatia muelleri Gtsf1
Outline: as §1

## GGAGACCUAUGAAUACAACCUACUAUCUCA
[1]
  pre-steady-state target cleavage rate: 0.00527 ± 0.0017
[2]
  pre-steady-state target cleavage rate: 0.000311 ± 0.0078
[3]
  pre-steady-state target cleavage rate: 0.00136 ± 0.0045

## GGAGACCUAUGAUUACAAGGUACUACCUCA
[1]
  pre-steady-state target cleavage rate: 0.0041 ± 0.0031
[2]
  pre-steady-state target cleavage rate: 0.00114 ± 0.0084
[3]
  pre-steady-state target cleavage rate: 0.000686 ± 0.0088

## GGAGACCUAUGAUAUGAGACCUACUACCUCA
[1]
  pre-steady-state target cleavage rate: 0.000495 ± 0.0077
[2]
  pre-steady-state target cleavage rate: 0.00015 ± 0.012
[3]
  pre-steady-state target cleavage rate: 0.00199 ± 0.0045

## GGAGACCUAUGUAUACGAACCUACUACCUCA
[1]
  pre-steady-state target cleavage rate: 0.000816 ± 0.0082
[2]
  pre-steady-state target cleavage rate: 0.00101 ± 0.0056
[3]
  pre-steady-state target cleavage rate: 0.0017 ± 0.0063

## GGAGACCUAUGAUAUCAACCAACUACGUCA
[1]
  pre-steady-state target cleavage rate: 0.000571 ± 0.0094
[2]
  pre-steady-state target cleavage rate: 0.00067 ± 0.0062
[3]
  pre-steady-state target cleavage rate: 0.000797 ± 0.0068

## GGAGACCUAUGAUAUCAACCUAGUACGUCA
[1]
  pre-steady-state target cleavage rate: 0.000236 ± 0.015
[2]
  pre-steady-state target cleavage rate: 0.000179 ± 0.01
[3]
  pre-steady-state target cleavage rate: 0.000447 ± 0.0076

## GGAGACCUAUGAUAUCAACCUACUACGUGA
[1]
  pre-steady-state target cleavage rate: 0.000168 ± 0.013
[2]
  pre-steady-state target cleavage rate: 0.000469 ± 0.0069
[3]
  pre-steady-state target cleavage rate: 0.000176 ± 0.016

## GGAGACCUAUGAUAUGUUGCUACAACGUCA
[1]
  pre-steady-state target cleavage rate: 0.00109 ± 0.0072
[2]
  pre-steady-state target cleavage rate: 0.00141 ± 0.0056
[3]
  pre-steady-state target cleavage rate: 0.000677 ± 0.0052

## GGAGACCUAUGAUUACAACCUACUACGUCA
[1]
  pre-steady-state target cleavage rate: 0.00195 ± 0.0025
[2]
  pre-steady-state target cleavage rate: 0.00169 ± 0.0032
[3]
  pre-steady-state target cleavage rate: 0.000551 ± 0.0036

## GGAGAGGAUACUAUACAACCUUGAACCUCA
[1]
  pre-steady-state target cleavage rate: 0.000176 ± 0.021
[2]
  pre-steady-state target cleavage rate: 0.000752 ± 0.004
[3]
  pre-steady-state target cleavage rate: 0.00408 ± 0.004

## GGAGACCAUACUAUACAACCGUACUACCUCA
[1]
  pre-steady-state target cleavage rate: 0.00349 ± 0.004
[2]
  pre-steady-state target cleavage rate: 0.000532 ± 0.011
[3]
  pre-steady-state target cleavage rate: 0.00209 ± 0.0042

## GGAGACCUAUGAAUACAACGCUACUACCUCA
[1]
  pre-steady-state target cleavage rate: 0.000194 ± 0.017
[2]
  pre-steady-state target cleavage rate: 0.00018 ± 0.01
[3]
  pre-steady-state target cleavage rate: 0.000441 ± 0.012

## GGAGACCUAUGAUUAGUACCUACUACCUCA
[1]
  pre-steady-state target cleavage rate: 0.000651 ± 0.0068
[2]
  pre-steady-state target cleavage rate: 0.000533 ± 0.0078
[3]
  pre-steady-state target cleavage rate: 0.00197 ± 0.0049

## GGAGACCUAUGAAUACAACGUACUACGUCA
[1]
  pre-steady-state target cleavage rate: 0.00152 ± 0.0042
[2]
  pre-steady-state target cleavage rate: 0.000386 ± 0.0068
[3]
  pre-steady-state target cleavage rate: 0.000328 ± 0.011

## GGAGACCUAUGAUAUGUUGCUACUACACUCA
[1]
  pre-steady-state target cleavage rate: 0.000721 ± 0.012
[2]
  pre-steady-state target cleavage rate: 0.000801 ± 0.011
[3]
  pre-steady-state target cleavage rate: 0.00102 ± 0.0082

## GGAGACCUAUGAUAUGUUCCAACUACCACA
[1]
  pre-steady-state target cleavage rate: 0.000404 ± 0.015
[2]
  pre-steady-state target cleavage rate: 0.000237 ± 0.011
[3]
  pre-steady-state target cleavage rate: 0.00012 ± 0.018

## GGAGACCUAUGAUAUCAACCUACAUCCUCA
[1]
  pre-steady-state target cleavage rate: 0.00192 ± 0.0031
[2]
  pre-steady-state target cleavage rate: 0.00044 ± 0.0036
[3]
  pre-steady-state target cleavage rate: 0.000115 ± 0.017

## GGAGACCUAUGAUAUCAACCUUACUACCUCA
[1]
  pre-steady-state target cleavage rate: 0.000995 ± 0.0049
[2]
  pre-steady-state target cleavage rate: 0.000241 ± 0.0084
[3]
  pre-steady-state target cleavage rate: 0.000203 ± 0.01

## GGAGACCUAUGAUAUGUUGGUAUUACCUCA
[1]
  pre-steady-state target cleavage rate: 0.000237 ± 0.017
[2]
  pre-steady-state target cleavage rate: 0.000358 ± 0.014
[3]
  pre-steady-state target cleavage rate: 0.000934 ± 0.0064

## GGAGACCUAUGAUAACAACUACUACCUCA
[1]
  pre-steady-state target cleavage rate: 0.000239 ± 0.012
[2]
  pre-steady-state target cleavage rate: 0.000115 ± 0.023
[3]
  pre-steady-state target cleavage rate: 0.000688 ± 0.0067
